Assay results: article doi:10.1101/2025.02.11.636929
These are yes or no findings as the source states them, for the method shown. In cells and extracts the contact can be indirect. Some binding calls cover weakened binding; strength is not graded here. Where a sequence is shown, tags or fusion partners need not be part of it.

B1: VAV1 (endogenous, Jurkat TAg) (protein, UniProt P15498 1-845)
chain: MELWRQCTHWLIQCRVLPPSHRVTWDGAQVCELAQALRDGVLLCQLLNNLLPHAINLREVNLRPQMSQFLCLKNIRTFLSTCCEKFGLKRSELFEAFDLFDVQDFGKVIYTLSALSWTPIAQNRGIMPFPTEEESVGDEDIYSGLSDQIDDTVEEDEDLYDCVENEEAEGDEIYEDLMRSEPVSMPPKMTEYDKRCCCLREIQQTEEKYTDTLGSIQQHFLKPLQRFLKPQDIEIIFINIEDLLRVHTHFLKEMKEALGTPGAANLYQVFIKYKERFLVYGRYCSQVESASKHLDRVAAAREDVQMKLEECSQRANNGRFTLRDLLMVPMQRVLKYHLLLQELVKHTQEAMEKENLRLALDAMRDLAQCVNEVKRDNETLRQITNFQLSIENLDQSLAHYGRPKIDGELKITSVERRSKMDRYAFLLDKALLICKRRGDSYDLKDFVNLHSFQVRDDSSGDRDNKKWSHMFLLIEDQGAQGYELFFKTRELKKKWMEQFEMAISNIYPENATANGHDFQMFSFEETTSCKACQMLLRGTFYQGYRCHRCRASAHKECLGRVPPCGRHGQDFPGTMKKDKLHRRAQDKKRNELGLPKMEVFQEYYGLPPPPGAIGPFLRLNPGDIVELTKAEAEQNWWEGRNTSTNEIGWFPCNRVKPYVHGPPQDLSVHLWYAGPMERAGAESILANRSDGTFLVRQRVKDAAEFAISIKYNVEVKHIKIMTAEGLYRITEKKAFRGLTELVEFYQQNSLKDCFKSLDTTLQFPFKEPEKRTISRPAVGSTKYFGTAKARYDFCARDRSELSLKEGDIIKILNKKGQQGWWRGEIYGRVGWFPANYVEEDYSEYC
B2: DOK2 (endogenous, Jurkat TAg) (protein, UniProt O60496 1-412)
chain: MGDGAVKQGFLYLQQQQTFGKKWRRFGASLYGGSDCALARLELQEGPEKPRRCEAARKVIRLSDCLRVAEAGGEASSPRDTSAFFLETKERLYLLAAPAAERGDWVQAICLLAFPGQRKELSGPEGKQSRPCMEENELYSSAVTVGPHKEFAVTMRPTEASERCHLRGSYTLRAGESALELWGGPEPGTQLYDWPYRFLRRFGRDKVTFSFEAGRRCVSGEGNFEFETRQGNEIFLALEEAISAQKNAAPATPQPQPATIPASLPRPDSPYSRPHDSLPPPSPTTPVPAPRPRGQEGEYAVPFDAVARSLGKNFRGILAVPPQLLADPLYDSIEETLPPRPDHIYDEPEGVAALSLYDSPQEPRGEAWRRQATADRDPAGLQHVQPAGQDFSASGWQPGTEYDNVVLKKGPK

How the values were obtained:
[1] = biological target: GFP-tagged full-length human TSAd R120K (human) (UniProt Q9NP31); assay: co-IP
[2] = biological target: GFP-tagged TSAd N-term (1-205) R120K (human) (UniProt Q9NP31); assay: co-IP

| Binder | binding [1] | binding [2] |
| --- | --- | --- |
| B1 | binds | binds |
| B2 | no binding | no binding |
